Percent effect of library compounds

Protein sequences, listed by entry. Tags and fused reporters are not part of them. Residues count along the entry.
UniProt A4I591, 1-473: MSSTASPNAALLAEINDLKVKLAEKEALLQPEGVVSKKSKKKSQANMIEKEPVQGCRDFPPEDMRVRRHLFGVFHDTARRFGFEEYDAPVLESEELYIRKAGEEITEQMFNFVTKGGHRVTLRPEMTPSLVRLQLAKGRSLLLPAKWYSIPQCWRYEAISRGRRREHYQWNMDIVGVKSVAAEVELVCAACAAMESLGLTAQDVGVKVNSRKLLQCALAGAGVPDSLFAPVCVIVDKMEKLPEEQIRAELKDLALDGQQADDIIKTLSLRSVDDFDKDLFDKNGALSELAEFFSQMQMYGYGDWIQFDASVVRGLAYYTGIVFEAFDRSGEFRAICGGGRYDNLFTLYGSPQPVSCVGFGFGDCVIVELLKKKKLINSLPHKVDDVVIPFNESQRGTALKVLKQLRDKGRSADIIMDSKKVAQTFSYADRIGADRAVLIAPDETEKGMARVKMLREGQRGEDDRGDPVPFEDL

From ChEMBL document CHEMBL3988442, “University of Dundee, Small-Polar-MMV Screening Library” (2021).

Each number is a percent effect as filed. How 0% and 100% were set is not recorded. Most values in the screen are low, and negative values occur. Compounds were drawn at random from those tested, without regard to their results.

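Histidine-tRNA ligase, Leishmania infantum (UniProt A4I591). Enzyme assay of histidyl-tRNA synthetase; the read-out is not stated. Tested at 30 µM. Higher reads as stronger inhibition (inferred: compounds with an IC50 in retests scored well above the rest). The assay is labelled LdHisRS but filed under L. infantum. Of about 69,000 compounds tested this way, about 410 (0.6%) reached 50% or more in at least one test.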

| structure | percent effect |
|---|---|
| `CCOc1ccc(NS(=O)(=O)c2cc(C)c(C(=O)O)s2)cc1F` | 21.31% |
| `C/C(=C\c1ccco1)CN(C)C(C)Cc1ccccn1` (stereo not given) | 19.4% |
| `CSCC(C)(O)CNC(=O)c1cccc(Cl)c1Cl` (stereo not given) | 15.15% |
| `CC(C)CNC(=O)[C@H]1CCS(=O)(=O)[C@@H]2CN(Cc3cccnc3)C[C@H]12` | 1.389% |
| `NC(=O)NC(=O)CCSCc1coc(-c2cccc(Cl)c2)n1` | 14.29% |
| `Cc1nnc(SCC(=O)NCC(c2ccccc2Cl)N(C)C)s1` (stereo not given) | 11.29% |
| `CCN1CCc2c(CNC(=O)c3nccn3C)cncc2C1` | 8% |
| `CN(C)C(=O)Cc1nc(CN2CCCC2Cn2cncn2)cs1` (stereo not given) | 9.6% |
| `Cc1cc(C(=O)N2CCc3ncnc(-c4cnn(C)c4)c3CC2)no1` | 4.167% |
| `Cc1ccc(-c2cc(CNC(=O)NC3CCCCNC3=O)on2)cc1` (stereo not given) | 12% |
| `COCCO[C@@H]1CCN(C(=O)c2ccc(C)o2)[C@@H]1Cc1cccnc1` | 7.692% |
| `Cc1nn(C)c(C)c1OCC(=O)NCC(O)c1ccco1` (stereo not given) | -13.43% |
| `CCS(=O)(=O)N1Cc2nccn2CC(CN2CCCC2)C1` (stereo not given) | 17.11% |
| `CC(NCC1CCS(=O)(=O)CC1)c1cccc(OC(F)F)c1` (stereo not given) | 2.857% |
| `COCC(=O)N1CCCC1c1nccnc1Nc1ncccn1` (stereo not given) | -1.449% |
| `C[C@@H]1CN(C(=O)c2cccn2C)C[C@]12CCN(c1ccsc1)C2=O` | 8% |
| `O=C1N(c2ccc(Cl)cc2)Cc2n[nH]c(=O)n21` | 4.301% |
| `COCCS(=O)(=O)NCC(C)c1cccc(C)c1` (stereo not given) | 18.31% |
| `Cc1c(CN2CCc3nc4sccc4c(=O)n3CC2)cnn1C` | 10.74% |
| `NC(=O)C1CCN(C(=O)Cc2cnc(-c3c(Cl)cccc3Cl)s2)CC1` | 12.09% |
| `COCCCC1CCCCN1C(=O)c1ccc(SCCO)cc1` (stereo not given) | 10.26% |
| `CC(C)(C)c1ncc(C(=O)N2CCC(N3CCSCC3)CC2)c(O)n1` | 13.11% |
| `CCc1cc(NC(=O)C2CCCN(C(=O)c3ccncc3)C2)[nH]n1` (stereo not given) | 17.39% |
| `CS(=O)(=O)N1CCC(c2nnc(CN3CCCC3)n2C2CC2)CC1` | 12.12% |
| `O=C1c2cccnc2OC(CN2CCOCC2)CN1C1CCC1` (stereo not given) | 8.247% |
| `Cc1ccc(N2CC3(CCN(S(=O)(=O)C4CC4)C3)C2)nn1` | 19.66% |
| `O=C1CC2(CCCCC2)CC(=O)N1CC(O)COCc1ccc(Cl)cc1` (stereo not given) | 11.32% |
| `CNc1ncc(CN(C)C(=O)c2ccc(C3CCCO3)s2)cn1` (stereo not given) | 12.5% |
| `CC(=O)N(C)Cc1ncn2c1CN(C(=O)C1CCCO1)CCC2` (stereo not given) | 9.901% |
| `Cc1ccc(C)c(NS(=O)(=O)c2cc3c(c(C(=O)O)c2)OCCO3)c1` | 6.25% |
| `O=C(Cc1ccccn1)N1CCc2ncnc(N3CCCC3)c2CC1` | 20% |
| `Cc1nc(C)n(C2CCCN(C(=O)c3csc(C(C)C)n3)C2)n1` (stereo not given) | 26.19% |
| `CN1CCO[C@@H]2CN(S(=O)(=O)c3ccc(F)cc3)CC[C@@H]2C1` | 17.95% |
| `COc1ccc(S(=O)(=O)NC(=O)COC2CCCCC2)cc1C` | 1.739% |
| `Cc1nc(CO[C@H]2CN(C(=O)c3ccc[nH]3)[C@@H]3COC[C@H]23)cs1` | 16% |
| `Cn1ccnc1CN1CCC2(CC1)CC(N1CCCC1)c1ccccc12` (stereo not given) | 16.98% |
| `Fc1ccccc1Cc1noc(CN2CC[C@@H]3CCCC[C@H]3C2)n1` | 15.29% |
| `CN(Cc1ccnc2ccccc12)C1CCS(=O)(=O)C1` (stereo not given) | 28.37% |
| `Cn1nccc1C(=O)Nc1cc(C(F)(F)F)c[nH]c1=O` | 14.68% |
| `CC(C)Oc1ccc(CNC(=O)CC(F)(F)F)cc1F` | 10.61% |
| `Cc1cc(F)ccc1S(=O)(=O)N1CCN(C)c2ccncc21` | 10.75% |
| `Cc1occc1C(=O)N1CCC(C(O)c2ccc(Cl)cc2)CC1` (stereo not given) | 11.11% |
| `COCC(=O)N1CC[C@@H](OCC2CC2)[C@@H]1Cc1cccnc1` | 30.56% |
| `CN(C)Cc1ccnc(C2CCCN2Cc2ccncc2)n1` (stereo not given) | 19.44% |
| `CCn1c(CN(C)Cc2csc(C)n2)nc2cc(F)ccc21` | 23.68% |
| `Cc1cn(CC(=O)Nc2cc(C(C)C)nn2C)cn1` | 16.39% |
| `COCCNC(=O)NCc1ccc(OC(C)C)c(F)c1` | 19.7% |
| `COc1cccc(C(=O)N(C)Cc2ncc(C)c(OC)c2C)c1OC` | 9.917% |
| `CC(C)N1CC(C(=O)NCc2cccnc2-n2cccn2)CC1=O` (stereo not given) | 12.04% |
| `Cc1cc(C)n(C2CN(Cc3nc4cc(Cl)ccc4n3C)C2)n1` | 6.667% |
| `CCOC(C)c1nc(CN2CCC(C3OCCO3)CC2)cs1` (stereo not given) | 1.613% |
| `CCC(C)NC(=O)CS(=O)(=O)Cc1cc(Cl)c2c(c1)OCCCO2` (stereo not given) | 8.475% |
| `Cc1cc(CNc2cc(Cl)ccc2C)no1` | 4.63% |
| `Cc1nc(CN(C)C2CCN(Cc3nc4ccccc4n3C)C2)no1` (stereo not given) | 10.34% |
| `COCCOc1cccc(C(=O)N2CCCC(n3ccnc3)C2)c1` (stereo not given) | 12.5% |
| `Cc1cnc(CN(C)C2CCN(CC(=O)Nc3c(C)n[nH]c3C)C2)o1` (stereo not given) | -1.124% |
| `Cc1ccc(CN2CCCC3(CCCN3S(C)(=O)=O)C2)s1` (stereo not given) | 20% |
| `CCn1c(C)nnc1SCCNC(=O)c1cnc(N(C)C)nc1C` | 11.29% |
| `O=C1CC2(CCN(Cc3ccoc3)CC2)CN1Cc1cc(F)cc(F)c1` | 2.247% |
| `Cc1cnn(CC2CCCCN2C(=O)c2ccc3nnc(C)n3c2)c1` (stereo not given) | 16% |
| `Cc1nn(C)cc1S(=O)(=O)N(CCc1ccccc1)Cc1ccn(C)n1` | 12.07% |
| `c1ccc2c(Cc3nnc([C@H]4CCN(C5CCC5)C4)o3)c[nH]c2c1` | 21.62% |
| `O=C(Cc1ccccc1)NCCNC(=O)c1scnc1Cl` | 12.07% |
| `Cc1nccn1C1CCCN(C(=O)c2cc3c(F)cccc3[nH]2)C1` (stereo not given) | -5.085% |
| `CN(Cc1csc(-c2ccccc2)n1)C(=O)CCn1ccccc1=O` | 11.29% |
| `Cc1cccc(C)c1OCC(=O)NS(=O)(=O)c1c(C)noc1C` | 0.9259% |
| `Cc1nc(N2C[C@H]3CNC[C@H]3C2)c2sccc2n1` | 12.12% |
| `CCc1nc(C)c(-c2nccn2CC2CCN(C3CCCC3)CC2)[nH]1` | 21.31% |
| `COc1cccc(CNC(=O)c2nc3c(o2)CN(S(C)(=O)=O)C3)c1` | 13.68% |
| `CN(CC(=O)N1CCCC1)C(=O)c1ccccc1Nc1ccccc1` | 16.13% |
| `CNC(=O)C(C)CN(C)C(=O)Nc1cc(F)cc(Br)c1` (stereo not given) | 10.42% |
| `O=C(c1cccc2ncccc12)N1CCC(Nc2cccnn2)CC1` | 14.29% |
| `COc1ccccc1OCc1cc(C(=O)N2CCC(NC(C)=O)C2)n[nH]1` (stereo not given) | 27.27% |
| `CN1CCCN(C(=O)NCc2cc(Br)cs2)CC1` | 12.84% |
| `CC(C)N(C)Cc1cn2c(n1)CN(C(=O)Cc1ccsc1)CC2` | 7.619% |
| `Cn1c2c(c(=O)n1C)CN(C(=O)c1ccco1)CCC2` | -2.655% |
| `CN(C)CCn1nc(C2CCN(S(=O)(=O)N(C)C)C2)c2cccnc21` (stereo not given) | 4.027% |
| `Cc1ccc2c(c1)C(NCc1ncnn1C)CC2` (stereo not given) | 0% |
| `CN(Cc1ccncc1)C1COC2(CCN(Cc3ccsc3)CC2)C1` (stereo not given) | 3.636% |
| `CC[C@H]1COCCN1C(=O)c1cnc(C(C)C)nc1C` | 0.7937% |
| `CC(NC(=O)c1ccc(Cl)cc1)c1nnc(SCC(N)=O)n1C` (stereo not given) | 12.07% |
| `O=C1CC[C@@H]2[C@@H](CCN2C(=O)c2ccsc2)N1Cc1ccncc1` | 14.71% |
| `Cc1cnc(-c2nc(NC3CC3)ncc2-c2onc(C)c2C)cn1` | 7.586% |
| `CC1CCN(c2ccc(C(=O)N3CCCC3c3nncn3C)cn2)CC1` (stereo not given) | 7.254% |
| `Cc1ccc(-c2nc(CN3CCn4c(nnc4C4CC4)C3)cs2)o1` | 27.66% |
| `COCCOCC(=O)Nc1ccc(C)cc1Cl` | 8.989% |

7 of the entries, repeated:

* CNC(=O)C(C)CN(C)C(=O)Nc1cc(F)cc(Br)c1 (stereo not given) | 10.42%
* CN1CCCN(C(=O)NCc2cc(Br)cs2)CC1 | 12.84%
* C[C@@H]1CN(C(=O)c2cccn2C)C[C@]12CCN(c1ccsc1)C2=O | 8%
* NC(=O)C1CCN(C(=O)Cc2cnc(-c3c(Cl)cccc3Cl)s2)CC1 | 12.09%
* CCOC(C)c1nc(CN2CCC(C3OCCO3)CC2)cs1 (stereo not given) | 1.613%
* O=C(Cc1ccccc1)NCCNC(=O)c1scnc1Cl | 12.07%
* CS(=O)(=O)N1CCC(c2nnc(CN3CCCC3)n2C2CC2)CC1 | 12.12%